The chains are these.
T1: endogenous UBA1 in HEK293 protein extract (human, UniProt P22314 2-1058, limits assumed)
T1 construct: In a cell lysate, identified by anti-UBA1 blot and molecular weight
T1 sequence (looked up): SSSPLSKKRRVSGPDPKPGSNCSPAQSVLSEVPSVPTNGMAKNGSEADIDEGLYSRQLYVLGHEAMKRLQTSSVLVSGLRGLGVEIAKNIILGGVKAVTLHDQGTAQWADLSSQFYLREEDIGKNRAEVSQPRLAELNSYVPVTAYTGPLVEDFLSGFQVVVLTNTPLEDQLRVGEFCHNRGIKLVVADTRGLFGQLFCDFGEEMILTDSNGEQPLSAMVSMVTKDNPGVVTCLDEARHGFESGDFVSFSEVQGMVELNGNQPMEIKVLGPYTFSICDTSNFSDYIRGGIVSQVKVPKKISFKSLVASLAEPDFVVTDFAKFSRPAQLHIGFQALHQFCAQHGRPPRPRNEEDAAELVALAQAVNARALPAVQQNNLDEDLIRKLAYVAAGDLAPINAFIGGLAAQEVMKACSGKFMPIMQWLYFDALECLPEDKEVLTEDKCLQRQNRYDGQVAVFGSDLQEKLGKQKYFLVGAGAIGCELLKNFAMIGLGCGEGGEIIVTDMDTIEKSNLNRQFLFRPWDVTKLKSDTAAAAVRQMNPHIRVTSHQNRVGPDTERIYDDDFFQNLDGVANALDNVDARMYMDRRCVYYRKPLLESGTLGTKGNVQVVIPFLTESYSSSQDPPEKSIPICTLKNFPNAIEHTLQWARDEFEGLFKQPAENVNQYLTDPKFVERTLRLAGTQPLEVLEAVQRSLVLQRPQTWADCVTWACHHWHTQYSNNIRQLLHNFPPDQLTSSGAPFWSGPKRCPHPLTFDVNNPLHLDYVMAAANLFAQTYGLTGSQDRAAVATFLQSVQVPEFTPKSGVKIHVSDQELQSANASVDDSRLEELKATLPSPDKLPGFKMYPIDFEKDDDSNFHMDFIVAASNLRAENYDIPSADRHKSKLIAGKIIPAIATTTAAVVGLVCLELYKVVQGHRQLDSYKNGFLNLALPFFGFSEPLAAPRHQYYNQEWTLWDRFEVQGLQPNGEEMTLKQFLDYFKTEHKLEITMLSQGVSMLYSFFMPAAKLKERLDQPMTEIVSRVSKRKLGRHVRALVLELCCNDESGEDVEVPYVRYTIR

B1: UBE2D3 thioacrylonitrile probe (enzyme)
chain: MGSSHHHHHHSSGLEVLFQGPGSALKRINKELSDLARDPPAQCSAGPVGDDMFHWQATIMGPNDSPYQGGVFFLTIHFPTDYPFKPPKVAFTTRIYHPNINSNGSICLDILRSQWSPALTISKVLLSICSLLCDPNPDDPLVPEIARIYKTDRDKYNRISREWTQKYAM
modifications: all 4 cysteines labelled with TDMA 1 (thioacrylonitrile)
notes: also called UBE2D3-=CN
B2: UBE2D3 thiomethyl acrylate probe (enzyme)
chain: B1 chain
modifications: all 4 cysteines labelled with TDMA 2 (thiomethyl acrylate)
notes: also called UBE2D3-VME
B3: UBE2D1 thioacrylonitrile probe (enzyme)
chain: MGSSHHHHHHSSGLVPRGSHMASMTGGQQMGRGSALKRIQKELSDLQRDPPAHCSAGPVGDDLFHWQATIMGPPDSAYQGGVFFLTVHFPTDYPFKPPKIAFTTKIYHPNINSNGSICLDILRSQWSPALTVSKVLLSICSLLCDPNPDDPLVPDIAQIYKSDKEKYNRHAREWTQKYAM
modifications: all 4 cysteines labelled with TDMA 1 (thioacrylonitrile)
notes: also called UBE2D1-=CN
B4: UBE2D1 thiomethyl acrylate probe (enzyme)
chain: B3 chain
modifications: all 4 cysteines labelled with TDMA 2 (thiomethyl acrylate)
notes: also called UBE2D1-VME
B5: UBE2D1C86 thioacrylonitrile probe (enzyme)
chain: MSYYHHHHHHDYDIPTTENLYFQGAGSGSMALKRIQKELSDLQRDPPAHSSAGPVGDDLFHWQATIMGPPDSAYQGGVFFLTVHFPTDYPFKPPKIAFTTKIYHPNINSNGSICLDILRSQWSPALTVSKVLLSISSLLSDPNPDDPLVPDIAQIYKSDKEKYNRHAREWTQKYAM
modifications: catalytic cysteine labelled with TDMA 1 (thioacrylonitrile)
notes: Non-catalytic cysteines mutated to serine; the entry already holds these changes; also called UBE2D1 C86-=CN
B6: UBE2D1C86 thiomethyl acrylate probe (enzyme)
chain: B5 chain
modifications: catalytic cysteine labelled with TDMA 2 (thiomethyl acrylate)
notes: also called UBE2D1 C86-VME

The experiment addresses T1, endogenous UBA1 in HEK293 protein …. The experiment in a line: probe (5 uM) in HEK293 extract (125 ug), 3 h at 30 C, western blot. Here is the method: Labelling was quenched by the addition of 1 part 4×LDS loading buffer (Life Technologies) supplemented with 715 mM 2-mercaptoethanol (BME) to 3 parts probe-treated protein extract. Proteins were resolved by SDS-PAGE (10%) and transferred to nitrocellulose membrane (20 V for 40-60 min) by semi-dry transfer using a Novex Semi-dry device (Life Technologies). Membranes were blocked by incubation with 5% milk powder in phosphate buffered saline+0.1% Tween 20 (PBST) for 1 h. His-tagged species were probed with 1:10000 anti-His primary antibody (Clontech) in PBST+5% milk powder for 30 min at room temperature. Detection was carried out by incubation with 1:2500 anti-mouse-HRP conjugated antibody (Cell Signalling Technologies) in PBST+5% milk powder for 1 h at room temperature. ECL Prime substrate (GE Life Sciences) was used for visualization in accordance with the manufacturers protocol. Probing for UBA1 was carried out with anti-UBA1 primary antibody (Sigma E3152) and incubated for 1 h at room temperature. Detection was carried out by incubation with 1:15000 anti-mouse-HRP conjugated antibody (Cell Signalling Technologies) in PBST+5% milk powder for 1 h at room temperature.
We next tested whether E2 probes could label endogenous proteins in a complex proteome. We prepared additional thioacrylonitrile and thiomethyl acrylate probes built on UBE2D1, UBE2D2, UBE2D3 and UBE2H. […] UBE2H was chosen as it only has a single catalytic cysteine. Human embryonic kidney cell (HEK293) extracts (125 μg) were incubated with empirically determined probe concentrations (5-25 μM).
With B1, the binding result is “binds”.

For B2, the binding result is on record as “binds”.

As to B3, the binding result is “binds”.

Consider B4, for which the binding result is listed as “binds”.

In the case of B5, the binding result is reported as “binds”.

Take B6: the binding result was “binds”.

Source of the values: patent US10829799 (UNIVERSITY COURT OF THE UNIVERSITY OF DUNDEE, dated 2020).
